Measured values reported in PMC8358030.
These are yes or no findings as the source states them, for the method shown. Binding seen in cells or lysates may run through a third protein. Some binding calls cover weakened binding; strength is not graded here.

Protein sequences, listed by entry. Tags and fused reporters are not part of them. Lines headed by an entry give the natural chain unless they say otherwise; changes in a name come on top. Chains listed by the source or under a name are the forms on record and can include a tag or linker. Residues count along the entry.
UniProt P53667: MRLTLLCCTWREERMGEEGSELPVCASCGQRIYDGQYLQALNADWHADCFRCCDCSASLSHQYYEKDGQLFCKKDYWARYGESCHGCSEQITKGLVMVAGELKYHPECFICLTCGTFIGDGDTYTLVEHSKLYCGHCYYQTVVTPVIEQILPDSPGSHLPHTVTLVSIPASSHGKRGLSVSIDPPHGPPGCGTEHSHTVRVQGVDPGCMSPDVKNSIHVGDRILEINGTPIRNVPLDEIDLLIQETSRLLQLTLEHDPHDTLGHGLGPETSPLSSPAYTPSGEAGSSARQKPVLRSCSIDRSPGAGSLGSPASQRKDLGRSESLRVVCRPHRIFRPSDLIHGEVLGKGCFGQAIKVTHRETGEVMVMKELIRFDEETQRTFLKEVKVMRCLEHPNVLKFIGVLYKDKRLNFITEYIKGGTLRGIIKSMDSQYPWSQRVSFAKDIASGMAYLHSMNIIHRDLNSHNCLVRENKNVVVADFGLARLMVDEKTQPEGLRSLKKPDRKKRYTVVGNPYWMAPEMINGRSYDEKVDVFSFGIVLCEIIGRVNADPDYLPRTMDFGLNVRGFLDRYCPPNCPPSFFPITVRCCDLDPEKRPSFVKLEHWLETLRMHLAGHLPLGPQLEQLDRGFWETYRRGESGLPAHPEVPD
DYK-tagged-∆CAPN2 (1–447) (P17655, residues 1-447): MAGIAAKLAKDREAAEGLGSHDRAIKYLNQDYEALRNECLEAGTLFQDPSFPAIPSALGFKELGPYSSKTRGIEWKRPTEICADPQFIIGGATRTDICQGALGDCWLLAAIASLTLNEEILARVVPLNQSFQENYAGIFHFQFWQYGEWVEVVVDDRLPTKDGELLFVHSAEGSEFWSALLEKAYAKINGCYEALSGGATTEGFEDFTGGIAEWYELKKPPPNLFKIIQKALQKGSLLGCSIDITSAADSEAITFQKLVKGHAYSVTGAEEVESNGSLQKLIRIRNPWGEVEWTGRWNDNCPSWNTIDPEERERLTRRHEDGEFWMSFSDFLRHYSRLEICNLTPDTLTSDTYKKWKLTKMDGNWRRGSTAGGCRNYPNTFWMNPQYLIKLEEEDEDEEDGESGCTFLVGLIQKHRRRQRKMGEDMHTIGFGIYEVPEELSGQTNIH
DYK-tagged full-length CAPN2 (P17655, residues 20-700): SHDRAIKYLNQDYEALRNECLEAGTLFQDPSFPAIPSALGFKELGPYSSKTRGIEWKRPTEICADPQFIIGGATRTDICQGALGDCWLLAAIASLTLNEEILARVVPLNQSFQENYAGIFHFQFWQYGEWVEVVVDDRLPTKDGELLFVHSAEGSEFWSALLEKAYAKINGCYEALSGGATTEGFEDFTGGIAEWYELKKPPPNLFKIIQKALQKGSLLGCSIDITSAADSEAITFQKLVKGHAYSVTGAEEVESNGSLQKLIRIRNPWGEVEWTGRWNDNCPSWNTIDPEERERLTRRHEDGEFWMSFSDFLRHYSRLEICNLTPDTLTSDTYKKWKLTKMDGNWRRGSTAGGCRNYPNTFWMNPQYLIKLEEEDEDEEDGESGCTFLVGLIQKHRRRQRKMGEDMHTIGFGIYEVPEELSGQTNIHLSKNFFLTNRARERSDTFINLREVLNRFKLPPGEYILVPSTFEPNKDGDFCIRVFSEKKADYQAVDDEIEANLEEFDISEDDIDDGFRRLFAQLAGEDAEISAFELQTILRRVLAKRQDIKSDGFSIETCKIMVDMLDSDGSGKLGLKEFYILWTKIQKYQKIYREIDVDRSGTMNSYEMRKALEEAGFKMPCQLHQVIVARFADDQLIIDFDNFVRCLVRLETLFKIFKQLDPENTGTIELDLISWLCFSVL

Columns and labels:
[1] = biological target: LIM Kinase-1 (LIMK1), endogenous in MDA-MB-231 cells (human (endogenous in MDA-MB-231)) (UniProt P53667); experiment: co-IP; whole extracts (RIPA) of MDA-MB-231 cells transfected with scRNA (control); anti-Ct-LIMK1 on Dynabeads protein G, 200 μg extract; western blot with anti-CAPN2 and anti-CFL1
[2] = biological target: LIM Kinase-1 (LIMK1), endogenous in MCF-7 cells (human (endogenous in MCF-7)) (UniProt P53667); experiment: co-IP; protein extracts (RIPA) of MCF-7 cells overexpressing DYK-CAPN2 or DYK-∆CAPN2 for 48 h; anti-Ct-LIMK1 on Dynabeads protein G; western blot with anti-CAPN2

Question: “Calpain-2 (CAPN2), endogenous in MDA-MB-231 cells (from UniProt P17655-1 20-700) (enzyme)” was tested. Which binding [1] did it give?
Answer: Its binding is “binds”.

Question: With “DYK-tagged full-length CAPN2 (from UniProt P17655-1 20-700) (enzyme)” as the substance, how does the binding [2] read?
Answer: The binding was “binds”.

Question: How did the binding [2] turn out when “DYK-tagged-∆CAPN2 (1–447) (from UniProt P17655-1 1-447) (domain or fragment)” was run?
Answer: Its binding is “no binding”.
